The target in assay [1] is recombinant human ENPP1 extracellular domain fused with a His6-FLAG tag (human). Description: ELISA, ENPP1-His coated at 50 ng/well, 3-fold serial dilutions, anti-FLAG M2-HRP detection. For orientation: ELISA stands for enzyme-linked immunosorbent assay.
The target is the same in assay [2]. Description: BLItz biolayer interferometry, biotinylated ENPP1 on a streptavidin biosensor. (In general: BLI is a label-free optical method that tracks binding on a fibre tip over time.)
Assay [3] has the same target. Description: competition ELISA, biotinylated IgG1 17 detected with streptavidin-HRP in the presence of IgG1 3G12.
The target is the same in assay [4]. In words: ELISA, ENPP1-His coated at 50 ng/well, 3-fold serial dilutions, HRP goat anti-human IgG1 Fc detection.
Assay [5] shares this target. In words: competition ELISA, IgG1 3G12 as unlabelled competitor of biotinylated IgG1 17.

No constants are given. Whether binding was seen depends on the method and setting. A result given as binding can be weak or reduced; the word gives no strength.

B1: scFv 17 (scFv, not shown: small tags and cut ends)
scFv: DIQMTQSPSSLSASVGDRVTITCRASQSISSYLNWYQQKPGKAPKLLIYAASSLQSGVPSRFSGSGSGTDFTLTISSLQPEDAATYYCQQYDTFPLTFGGGTKVEIKGGGGSGGGGSGGGGSQVQLVESGGGLVKPGGSLRLSCAASGFTFSDYYMSWIRQAPGKGLEWVSYISSSGSTIYYADSVKGRFTISRDNAKNSLYLQMNSLRAEDTAVYYCAREVYYYDSSGYYTYYFDYWGQGTLVTVSS
On to B1, for which the binding entry in assay [1] is “binds”.

B2: scFv 3G12 (scFv, not shown: small tags and cut ends)
scFv: DIQMTQSPSSLSASVGDRVTITCRASQSISSYLNWYQQKPGKAPKLLIYAASSLQSGVPSRFSGSGSGTDFTLTISSLQPEDVAVYYCQQYYTSRITFGQGTKLEIKGGGGSGGGGSGGGGSQVQLVESGGGLVKPGGSLRLSCAASGFTFSDYYMSWIRQAPGKGLEWVSYISSSGSTIYYADSVKGRFTISRDNAKNSLYLQMNSLRAEDTAVYYCAREVYYYDSSGYYTYYFDYWGQGTLVTVSS
For the molecule B2, in assay [1], the binding entry is “binds”.

B3: Fab 17 (Fab, V domains shown)
VH: QVQLVESGGGLVKPGGSLRLSCAASGFTFSDYYMSWIRQAPGKGLEWVSYISSSGSTIYYADSVKGRFTISRDNAKNSLYLQMNSLRAEDTAVYYCAREVYYYDSSGYYTYYFDYWGQGTLVTVSS
VL: DIQMTQSPSSLSASVGDRVTITCRASQSISSYLNWYQQKPGKAPKLLIYAASSLQSGVPSRFSGSGSGTDFTLTISSLQPEDAATYYCQQYDTFPLTFGGGTKVEIKR
B3: the binding result in assay [1] and in assay [2] was “binds” in each case.

B4: IgG1 17 (antibody, V domains shown)
VH: QVQLVESGGGLVKPGGSLRLSCAASGFTFSDYYMSWIRQAPGKGLEWVSYISSSGSTIYYADSVKGRFTISRDNAKNSLYLQMNSLRAEDTAVYYCAREVYYYDSSGYYTYYFDYWGQGTLVTVSS
VL: DIQMTQSPSSLSASVGDRVTITCRASQSISSYLNWYQQKPGKAPKLLIYAASSLQSGVPSRFSGSGSGTDFTLTISSLQPEDAATYYCQQYDTFPLTFGGGTKVEIKR
For B4, the binding result in assay [3], in assay [4] and in assay [2] was “binds” each time.

B5: IgG1 3G12 (antibody, V domains shown)
VH: QVQLVESGGGLVKPGGSLRLSCAASGFTFSDYYMSWIRQAPGKGLEWVSYISSSGSTIYYADSVKGRFTISRDNAKNSLYLQMNSLRAEDTAVYYCAREVYYYDSSGYYTYYFDYWGQGTLVTVSS
VL: DIQMTQSPSSLSASVGDRVTITCRASQSISSYLNWYQQKPGKAPKLLIYAASSLQSGVPSRFSGSGSGTDFTLTISSLQPEDVAVYYCQQYYTSRITFGQGTKLEIKR
Consider B5, for which the binding entry in assay [5], in assay [4] and in assay [2] was “binds” in each case.

B6: Fab 3G12 (Fab, V domains shown)
VH: QVQLVESGGGLVKPGGSLRLSCAASGFTFSDYYMSWIRQAPGKGLEWVSYISSSGSTIYYADSVKGRFTISRDNAKNSLYLQMNSLRAEDTAVYYCAREVYYYDSSGYYTYYFDYWGQGTLVTVSS
VL: DIQMTQSPSSLSASVGDRVTITCRASQSISSYLNWYQQKPGKAPKLLIYAASSLQSGVPSRFSGSGSGTDFTLTISSLQPEDVAVYYCQQYYTSRITFGQGTKLEIKR
For the molecule B6, the binding result in assay [1] and in assay [2] was “binds” each time.

Source of the values: US20250177530A1, “MOLECULES THAT BIND TO ENPP1 POLYPEPTIDES” (UNIVERSITY OF PITTSBURGH - OF THE COMMONWEALTH SYSTEM OF …, priority 2022, published 2025).
